This is one part of the list.
What follows are sequences tested against T1, OsSMF1 (Oryza sativa, UniProt Q6ZLB0 1-436) (assay: protein-binding microarray (RPBM); PBS, 2% BSA, 51.3 ng/ul salmon testes DNA, 50 uM zinc acetate, 200 nM TF, 25 C, 1 h; high values mean tight binding). Conditions: protein: recombinant; tags: N-terminal polyhistidine and DsRed monomer fusion (pET32a); chain copies: 2; label: CyDye5-dUTP incorporated in the synthesized complementary strand; 3' TTTTT single-stranded linker to array surface; dsDNA, one strand shown.
T1 sequence: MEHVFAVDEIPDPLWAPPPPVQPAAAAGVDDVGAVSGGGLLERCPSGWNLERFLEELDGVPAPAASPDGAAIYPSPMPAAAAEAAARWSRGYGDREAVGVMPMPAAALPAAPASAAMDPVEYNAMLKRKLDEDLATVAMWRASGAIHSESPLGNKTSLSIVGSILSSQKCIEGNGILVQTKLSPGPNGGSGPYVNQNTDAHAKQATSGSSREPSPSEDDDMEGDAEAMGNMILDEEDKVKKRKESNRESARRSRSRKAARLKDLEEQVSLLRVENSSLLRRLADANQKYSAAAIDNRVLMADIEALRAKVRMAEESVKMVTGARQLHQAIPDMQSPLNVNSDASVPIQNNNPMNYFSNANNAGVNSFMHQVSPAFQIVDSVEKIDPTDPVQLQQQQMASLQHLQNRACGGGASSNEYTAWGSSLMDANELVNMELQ
How it was run: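 Transcription factors were made in E. coli BL21-CodonPlus as N-terminal fusions to a polyhistidine tag and DsRed, then purified on Ni–NTA. After primer extension with Cy5-dUTP and blocking with 2% BSA, a custom Agilent array was exposed for 1 h at 25 °C to 200 nM protein in PBS, 2% BSA, salmon testes DNA and 50 µM zinc acetate. Washed arrays were scanned on an Axon 4000B, and the binding signal is per-feature fluorescence intensity in arbitrary units.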

In order of rising binding signal:
1. CACCACACGAAGCAGCCACGAACGCAACGCGGGTGCGTCGCGGAGTCACCTAGTGCAG  3140 fluorescence intensity (a.u.)
2. CCGCGCGGAGCATTCTCCCTGTAAACCTACAAATGTTATACGGAGTCACCTAGTGCAG  3220 fluorescence intensity (a.u.)
3. ATATTAATTTGGTATTGGAGTATACCACTGAGCAATTGCACGGAGTCACCTAGTGCAG  3220 fluorescence intensity (a.u.)
4. CACGGTTCGAGGCGGAGAAGTTTTGCACGTCCCTTCATCCCGGAGTCACCTAGTGCAG  3250 fluorescence intensity (a.u.)
5. AAAACAAATAAGCCCATAGTTCTCACTAAAGTGCTGAATTCGGAGTCACCTAGTGCAG  3280 fluorescence intensity (a.u.)
6. AGGAAATTAGGCTAGGGTTTTCGCCATGGCTACCACCCACCGGAGTCACCTAGTGCAG  3300 fluorescence intensity (a.u.)
7. CATGAACAGGGTGATTAAGTGATTATTATTATTAATTAATCGGAGTCACCTAGTGCAG  3380 fluorescence intensity (a.u.)
8. AATCAATTCTAGATGATTCACCTTATTTGGTCGGTGTGATCGGAGTCACCTAGTGCAG  3530 fluorescence intensity (a.u.)
9. TTCTACTCAAGTTGGCACACGCCGTTTACACAAACCACACCGGAGTCACCTAGTGCAG  3550 fluorescence intensity (a.u.)
10. TACACATGATGACATACAAGGACACCATCTGGTCCAAATGCGGAGTCACCTAGTGCAG  3600 fluorescence intensity (a.u.)
11. TTCTCCACATGCACTGTCGTTATCAATGTCAAATATACCTCGGAGTCACCTAGTGCAG  3600 fluorescence intensity (a.u.)
12. GCAAACACCGGTAGTTCTCTCTGCCTCGCCTATAAATGTGCGGAGTCACCTAGTGCAG  3640 fluorescence intensity (a.u.)
13. CAGCCCGACGGCAGGAGAAACTACGCCGTCGTGGCAATCGCGGAGTCACCTAGTGCAG  3660 fluorescence intensity (a.u.)
14. TCCTTCACCGGTGAAGCGAACAAGGGTGACAGATCCGGAGCGGAGTCACCTAGTGCAG  3770 fluorescence intensity (a.u.)
15. GAGGGTCTCGGTGACGGCGGCGACGGAAGCGGGGTCGGGGCGGAGTCACCTAGTGCAG  3930 fluorescence intensity (a.u.)
16. GAGAAGGAGGCGGTCCCACGCCATCTGCTCGGATGTCCCCCGGAGTCACCTAGTGCAG  3940 fluorescence intensity (a.u.)
17. CATCTGACGTCTTTGCTCCACCTGGTTCTTAATGACATTTCGGAGTCACCTAGTGCAG  4070 fluorescence intensity (a.u.)
18. TCCACCCTTGCCGATGACGGCAACTCTCCCTCCGCTGTCCCGGAGTCACCTAGTGCAG  4110 fluorescence intensity (a.u.)
19. GAAGTCGCCGCTGCCGTCCTTGGCCACCGTCACGTTCGGGCGGAGTCACCTAGTGCAG  4270 fluorescence intensity (a.u.)
20. ACGAGGTCAAAGCTGCCACATCAGAAAACAACCTCCCGAACGGAGTCACCTAGTGCAG  4540 fluorescence intensity (a.u.)
21. TCATCCCCTGATCGTCATCAGCATTCTCACCGTCGGCGCTCGGAGTCACCTAGTGCAG  4690 fluorescence intensity (a.u.)
22. TGTGCCAAGCAAATGCTCCTCCACGTGAGCGATGATAATGCGGAGTCACCTAGTGCAG  4700 fluorescence intensity (a.u.)
23. CCTTCCACCTAGGATAGTGTCTATGGCATTAACTACATTGCGGAGTCACCTAGTGCAG  4860 fluorescence intensity (a.u.)
24. ATAACCCTCCTGCTTTCTAATCAGTGATGACACACACAAACGGAGTCACCTAGTGCAG  4940 fluorescence intensity (a.u.)
25. GAGCTTATGACGACTCCAAACCATCGTCAGCTAGTTGCTCCGGAGTCACCTAGTGCAG  5280 fluorescence intensity (a.u.)
26. GTATAGGGGAGAGGGTGGGCGGGTGATCACTGGGTGGGTGCGGAGTCACCTAGTGCAG  5920 fluorescence intensity (a.u.)
27. TTTTAGCACTGACTTATAGATCAAACACGTGTATAAAAGTCGGAGTCACCTAGTGCAG  6020 fluorescence intensity (a.u.)
28. TGCTATAGTAAACATTTGCTAATGACGTATTAATTAAGCTCGGAGTCACCTAGTGCAG  6060 fluorescence intensity (a.u.)
29. CAGGCTCTGACGTAAGATATATGTAACTCAGGAGAGACATCGGAGTCACCTAGTGCAG  6090 fluorescence intensity (a.u.)
30. TTATATTATATAAAGTTACTTCTAAGTGTGACACGTAACACGGAGTCACCTAGTGCAG  6550 fluorescence intensity (a.u.)
31. GGACGACGCGTTGACAGAGGAAGGCTTCAGCCACATCATCCGGAGTCACCTAGTGCAG  7530 fluorescence intensity (a.u.)
32. TAATAGGTCCAGTTGTTTATTAAAGTGGCACGTGGCGTTTCGGAGTCACCTAGTGCAG  8950 fluorescence intensity (a.u.)
33. AACGAACGTGATGCCTTCTTTTCGAGCTGTTTTAATAATACGGAGTCACCTAGTGCAG  15100 fluorescence intensity (a.u.)
34. ACCGTGCACGGTTGGTCCATGCGATGGCTGCGAGGCACAGCGGAGTCACCTAGTGCAG  19000 fluorescence intensity (a.u.)
35. CAGCCATCCATCCCACCCACACGTCACCACCCGCGCATCCCGGAGTCACCTAGTGCAG  20500 fluorescence intensity (a.u.)
36. CTCCACGTCCGCGACCTCTCCTTCCTCCGCCCACGCCGCCCGGAGTCACCTAGTGCAG  20600 fluorescence intensity (a.u.)
37. ATGGACCTATCACTACTCTATATGTGATCAGCCATCTAAACGGAGTCACCTAGTGCAG  22400 fluorescence intensity (a.u.)
38. TCCAACACCTTCCTTGATCCCATAACATTTGCTTCTTTCTCGGAGTCACCTAGTGCAG  25900 fluorescence intensity (a.u.)
39. CACTGGCCAACGAGCTTCTGGGTTGTGCCGGGTCGAGGCCCGGAGTCACCTAGTGCAG  27000 fluorescence intensity (a.u.)
40. ATCTAGTAACTATTTGCAATGTTTGCTACTAGATTCTAAGCGGAGTCACCTAGTGCAG  31400 fluorescence intensity (a.u.)
41. AAAACACAGGAATGGTCGTTTGATTGGAGCGCAGGAGAAACGGAGTCACCTAGTGCAG  64900 fluorescence intensity (a.u.)
42. TTTTCCAACTTACCTCCTTCATTTTCCACGCGCACATTTTCGGAGTCACCTAGTGCAG  65500 fluorescence intensity (a.u.)

— PMC7819943, “Rice protein-binding microarrays: a tool to detect cis-acting elements near promoter regions in rice”
